This is an account of results in paper doi:10.1101/139907.

Protein sequences, listed by entry. Tags and fused reporters are not part of them. Lines headed by an entry give the natural chain unless they say otherwise; changes in a name come on top.
UniProt Q96EB6: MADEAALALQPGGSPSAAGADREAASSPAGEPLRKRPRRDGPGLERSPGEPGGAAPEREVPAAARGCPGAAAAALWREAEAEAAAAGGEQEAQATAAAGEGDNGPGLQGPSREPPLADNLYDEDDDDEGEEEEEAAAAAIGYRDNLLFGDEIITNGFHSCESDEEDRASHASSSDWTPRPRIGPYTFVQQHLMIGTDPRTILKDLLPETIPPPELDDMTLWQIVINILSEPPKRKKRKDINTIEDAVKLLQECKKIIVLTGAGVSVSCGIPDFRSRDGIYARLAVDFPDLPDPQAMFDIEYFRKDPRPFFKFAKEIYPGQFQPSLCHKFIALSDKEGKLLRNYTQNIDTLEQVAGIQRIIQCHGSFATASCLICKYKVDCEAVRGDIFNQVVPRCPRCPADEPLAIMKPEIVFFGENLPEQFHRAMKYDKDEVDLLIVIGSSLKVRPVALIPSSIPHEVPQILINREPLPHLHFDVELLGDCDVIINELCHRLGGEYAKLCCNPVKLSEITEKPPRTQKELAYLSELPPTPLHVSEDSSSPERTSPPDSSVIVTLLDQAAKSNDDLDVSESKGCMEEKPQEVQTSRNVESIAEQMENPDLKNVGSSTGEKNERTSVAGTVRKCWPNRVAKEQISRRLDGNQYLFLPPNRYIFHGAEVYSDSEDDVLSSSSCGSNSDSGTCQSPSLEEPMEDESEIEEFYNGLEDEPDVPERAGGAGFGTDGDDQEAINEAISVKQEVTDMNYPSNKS
UniProt Q8N6T7: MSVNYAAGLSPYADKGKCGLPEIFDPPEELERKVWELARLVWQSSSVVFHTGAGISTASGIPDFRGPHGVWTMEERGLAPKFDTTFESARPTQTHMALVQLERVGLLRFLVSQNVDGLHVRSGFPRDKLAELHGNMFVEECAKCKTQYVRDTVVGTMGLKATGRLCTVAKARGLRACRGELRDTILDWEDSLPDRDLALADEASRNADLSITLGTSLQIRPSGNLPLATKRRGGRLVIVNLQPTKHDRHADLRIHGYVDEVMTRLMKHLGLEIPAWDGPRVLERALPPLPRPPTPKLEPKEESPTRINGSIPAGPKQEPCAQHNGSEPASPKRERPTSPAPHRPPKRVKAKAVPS
UniProt Q9NRC8: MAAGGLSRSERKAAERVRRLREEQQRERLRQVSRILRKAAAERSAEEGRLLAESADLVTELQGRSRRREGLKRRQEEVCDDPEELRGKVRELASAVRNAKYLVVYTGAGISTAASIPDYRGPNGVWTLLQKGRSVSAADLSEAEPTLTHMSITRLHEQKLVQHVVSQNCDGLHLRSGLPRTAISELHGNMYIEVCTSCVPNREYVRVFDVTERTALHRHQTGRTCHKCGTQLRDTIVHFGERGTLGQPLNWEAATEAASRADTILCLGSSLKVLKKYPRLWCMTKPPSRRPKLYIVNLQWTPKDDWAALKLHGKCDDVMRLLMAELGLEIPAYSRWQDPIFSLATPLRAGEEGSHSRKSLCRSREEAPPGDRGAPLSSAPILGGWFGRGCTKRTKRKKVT
UniProt P15559: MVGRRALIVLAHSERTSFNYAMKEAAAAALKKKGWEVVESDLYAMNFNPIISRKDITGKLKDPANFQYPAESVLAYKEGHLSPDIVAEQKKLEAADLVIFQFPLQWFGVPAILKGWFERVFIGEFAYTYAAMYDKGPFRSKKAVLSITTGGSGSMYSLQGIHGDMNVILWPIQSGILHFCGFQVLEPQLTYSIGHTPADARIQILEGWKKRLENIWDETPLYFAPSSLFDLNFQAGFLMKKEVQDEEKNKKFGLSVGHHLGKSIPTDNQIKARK

Like-named read-outs stand apart in the source and are kept apart here. These are yes or no findings as the source states them, for the method shown. For some of these results: Binding seen in cells or lysates may run through a third protein. Some entries that bind do so weakly or less than the wild type. For some of these results: Sequences can lack the tags named with a protein.

One assay has as its target His-SIRT1 (UniProt Q96EB6). Nature of the assay: pull-down.
The target in the next assay is flag-SIRT1 H363Y (UniProt Q96EB6). Nature of the assay: co-IP.
The target in another assay is flag-SIRT6 (UniProt Q8N6T7). Nature of the assay: co-IP.
The target of assay [1] is flag-SIRT1 (UniProt Q96EB6). In words: co-IP.
The next assay deals with flag-SIRT7 (UniProt Q9NRC8). Nature of the assay: co-IP.
For another assay, the target named is T1, flag-SIRT2 (UniProt Q8IXJ6).
T1 sequence: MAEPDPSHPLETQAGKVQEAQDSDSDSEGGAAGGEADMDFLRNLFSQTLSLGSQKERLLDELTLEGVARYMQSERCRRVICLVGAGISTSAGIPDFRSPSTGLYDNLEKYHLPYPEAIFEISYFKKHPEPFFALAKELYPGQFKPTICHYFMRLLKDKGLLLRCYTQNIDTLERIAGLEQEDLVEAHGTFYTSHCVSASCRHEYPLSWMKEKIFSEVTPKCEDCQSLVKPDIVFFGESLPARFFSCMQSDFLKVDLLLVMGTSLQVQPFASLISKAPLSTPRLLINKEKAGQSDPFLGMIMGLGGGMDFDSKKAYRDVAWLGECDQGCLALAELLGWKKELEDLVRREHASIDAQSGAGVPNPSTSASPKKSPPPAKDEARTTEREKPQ
Nature of the assay: co-IP.

For assay [2], the target named is flag-SIRT1 (UniProt Q96EB6). In words: co-IP. This is another data set of the same source.

For the substance “NQO1, bacterially expressed and purified (from UniProt P15559 1-274) (enzyme)”, the binding entry with His-SIRT1 is given as “binds”.
For “NQO1 (NAD(P)H Dehydrogenase Quinone 1) (from UniProt P15559 1-274) (enzyme)”, the binding entry with flag-SIRT1 H363Y is “no binding”; with flag-SIRT6, “binds weakly”; in the assay with flag-SIRT1 [1], “binds”; in the assay with flag-SIRT7 it was “binds weakly”; with flag-SIRT2 it was “binds weakly”; with flag-SIRT1 [2], “binds”.
